Key:
Type in all cases: cell-based
Conditions in all cases: alone
E. coli ESBL 5 = assay: Broth microdilution MIC (strain enzymes: CTX-M15, TEM-1)
K. pneumoniae SI-KP NO30 = assay: Broth microdilution MIC (strain enzymes: TEM-26b, SHV-60, SHV-26)
E. coli Si-FDL-GES = system: E. coli Si-FDL-GES
E. coli SI-M004 = assay: Broth microdilution MIC (strain enzymes: SHV-2, GES-12)
K. pneumoniae KP 3 = assay: Broth microdilution MIC (strain enzymes: SHV-1, TEM-1)
K. pneumoniae 319478 = assay: Broth microdilution MIC (strain enzymes: SHV-12, CTX-M3 and TEM-1)
K. pneumoniae ESBL 7 #2 = assay: Broth microdilution MIC (strain enzymes: SHV-12, CTX-M15, TEM-1)
E. coli 2150 = assay: Broth microdilution MIC (strain enzymes: SHV-3, TEM-1)
K. pneumoniae ESBL 7 #1 = assay: Broth microdilution MIC (strain enzymes: SHV-12, TEM-1)
E. coli ESBL 2 = assay: Broth microdilution MIC (strain enzymes: TEM-1)
E. coli BAS 1 = assay: Broth microdilution MIC (strain enzymes: none detected)
K. pneumoniae KP 4 = assay: Broth microdilution MIC (strain enzymes: SHV-2a, SHV-5, TEM-1)
K. oxytoca 169219 = assay: Broth microdilution MIC (strain enzymes: TEM-1, CTXM-15)
K. pneumoniae 170375 = assay: Broth microdilution MIC (strain enzymes: SHV-12, CTX-M15 and TEM-1)
K. pneumoniae KPN 508 = assay: Broth microdilution MIC (strain enzymes: SHV-7, TEM-1)
K. pneumoniae KP 8 = assay: Broth microdilution MIC (strain enzymes: TEM-10, TEM-1, CTX-M15)
K. pneumoniae BAA 1705 = assay: Broth microdilution MIC (strain KPC-producing)
E. coli SI-LP377 = system: E. coli SI-LP377
K. pneumoniae 3151 = assay: Broth microdilution MIC (strain enzymes: SHV-12, TEM-1)
E. coli ESBL 4 = assay: Broth microdilution MIC (strain enzymes: CTX-M15, TEM-1)

CC1=C(C(=O)O)N2C(=O)[C@@H](NC(=O)[C@H](N)c3ccccc3)[C@H]2SC1 [Cephalexin, cefalexin, reference compound]
MIC of cefalexin (LEX) (E. coli ESBL 5): >32 µg/mL
MIC of cefalexin (LEX) (K. pneumoniae SI-KP NO30): 0.5 µg/mL
MIC of cefalexin (LEX) (E. coli Si-FDL-GES): >32 µg/mL
MIC of cefalexin (LEX) (E. coli SI-M004): 32 µg/mL
MIC of cefalexin (LEX) (K. pneumoniae KP 3): 4 µg/mL
MIC of cefalexin (LEX) (K. pneumoniae 319478): >32 µg/mL
MIC of cefalexin (LEX) (K. pneumoniae ESBL 7 #2): >32 µg/mL
MIC of cefalexin (LEX) (E. coli 2150): >32 µg/mL
MIC of cefalexin (LEX) (K. pneumoniae ESBL 7 #1): 32 µg/mL
MIC of cefalexin (LEX) (E. coli ESBL 2): >32 µg/mL
MIC of cefalexin (LEX) (E. coli BAS 1): >32 µg/mL
MIC of cefalexin (LEX) (K. pneumoniae KP 4): 8 µg/mL
MIC of cefalexin (LEX) (K. oxytoca 169219): >32 µg/mL
MIC of cefalexin (LEX) (K. pneumoniae 170375): >32 µg/mL
MIC of cefalexin (LEX) (K. pneumoniae KPN 508): 32 µg/mL
MIC of cefalexin (LEX) (K. pneumoniae KP 8): 0.5 µg/mL
MIC of cefalexin (LEX) (K. pneumoniae BAA 1705): >32 µg/mL
MIC of cefalexin (LEX) (E. coli SI-LP377): >32 µg/mL
MIC of cefalexin (LEX) (K. pneumoniae 3151): >32 µg/mL
MIC of cefalexin (LEX) (E. coli ESBL 4): >32 µg/mL
